Measured data: PubChem BioAssay AID1259291 (Sanger Institute, 2017)
In all, the deposit lists 794 reagents; below is a part drawn at random. 15 of them (1.9%) count as active. 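Calls rest on knock-down alone; drug synergy scores do not affect them; drugs added a day post-transfection, DMSO vehicle as comparison.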 No viability above 1 is reported: the scale is capped. Further read-outs or replicates are left out here. No sequences are given here. Not given: the amount of reagent, the time to read-out.

Test: 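Genes needed for HT29 colorectal cancer cell survival or for sensitivity to drugs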 (primary screen)
Cell system: HT29 human colorectal cancer cells
Reagent: siRNA pool against human genes
Conditions: anchor drugs added a day after transfection: BYL719 at 1 µM, cetuximab at 5 µg/ml or trametinib at 10 nM, or DMSO vehicle alone
Detection: 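Replicate-averaged viability relative to non-targeting pool, robust z-score based on control wells, plus per-drug synergy score for 1 µM BYL719, 5 µg/ml cetuximab and 10 nM trametinib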
Reading the numbers: robust z-score, knock-down alone and viability, knock-down alone: higher = more viable cells; synergy score with BYL719: higher = stronger synergistic killing with drug
Active means: 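Essential when the robust z-score for knock-down without any drug is below -3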
Calls: active = essential (knock-down alone); inactive = no change alone

| gene symbol | robust z-score, knock-down alone | viability, knock-down alone (fraction of control) | synergy score with BYL719 | outcome |
| --- | --- | --- | --- | --- |
| MAPK1 (GeneID 5594) | 0.552 | 1 | 0.19 | inactive |
| STK40 (GeneID 83931) | 0.552 | 1 | 0.167 | inactive |
| MYLK (GeneID 4638) | 0.552 | 1 | -0.0304 | inactive |
| TAOK1 (GeneID 57551) | 0.552 | 1 | -0.0331 | inactive |
| CDK7 (GeneID 1022) | 0.552 | 1 | -0.112 | inactive |
| IRAK3 (GeneID 11213) | 0.552 | 1 | 0.17 | inactive |
| IGF2R (GeneID 3482) | 0.552 | 1 | -0.077 | inactive |
| ELP1 (GeneID 8518) | -0.331 | 0.945 | -0.0283 | inactive |
| STK36 (GeneID 27148) | 0.552 | 1 | -0.0857 | inactive |
| PRKAR2A (GeneID 5576) | 0.0243 | 0.967 | -0.017 | inactive |
| DGKB (GeneID 1607) | 0.552 | 1 | 0.189 | inactive |
| MTOR (GeneID 2475) | 0.552 | 1 | 0.113 | inactive |
| STK32B (GeneID 55351) | 0.44 | 0.993 | -0.0572 | inactive |
| FLT4 (GeneID 2324) | 0.552 | 1 | 0.0197 | inactive |
| DGUOK (GeneID 1716) | 0.552 | 1 | 0.0311 | inactive |
| SBK1 (GeneID 388228) | 0.552 | 1 | -0.158 | inactive |
| TSSK4 (GeneID 283629) | 0.552 | 1 | -0.0652 | inactive |
| MAP3K10 (GeneID 4294) | 0.552 | 1 | -0.14 | inactive |
| STK25 (GeneID 10494) | 0.552 | 1 | 0.171 | inactive |
| EFNA3 (GeneID 1944) | 0.552 | 1 | 0.143 | inactive |

Entries listed so far whose target name starts with I or i (2):
| gene symbol | robust z-score, knock-down alone | viability, knock-down alone (fraction of control) | synergy score with BYL719 | outcome |
| --- | --- | --- | --- | --- |
| IRAK3 (GeneID 11213) | 0.552 | 1 | 0.17 | inactive |
| IGF2R (GeneID 3482) | 0.552 | 1 | -0.077 | inactive |
